Taken from: PubChem BioAssay AID1259254 (NCATS, 2017)

- Test: 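Gene knock-downs that lead to re-replication, shown by excess G2 DNA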 (primary screen)
- System: human HCT116 colorectal cancer cells
- Reagent: single siRNA against human genes
- Time to read-out: 3 days
- Detection: 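Nuclei stained with Hoechst and imaged; cell-cycle phase assigned by DNA content; G2 share scaled per plate, non-targeting siRNA 0%, GMNN siRNA 100%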
- Scale: G2 robust z-score: higher = more G2 cells, more excess DNA replication
- Rule for the call: 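An siRNA counts as active if its G2 robust z-score lies at least 5 MADs above the screen median; here such calls match roughly 38% of GMNN control or more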
This is one part, drawn at random, of about 59,000 reagents tested. About 1,550 of all reagents (2.6%) were called active. 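G2 share is only a proxy for re-replication; each gene was hit by three separate siRNAs, and active genes were retested.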 The numbers tell different reagents against one gene apart. Further read-outs or replicates are left out here. No sequences are given here. The record does not give: the amount of reagent.

G2 robust z-score, by target gene and reagent
MARCKS (myristoylated alanine rich protein kinase C substrate): #1 -0.477 inactive; #2 -0.206 inactive; #3 1.08 inactive
IER5L (immediate early response 5 like): #1 4.42 inactive; #2 -0.266 inactive; #3 2.19 inactive
CYBA (cytochrome b-245 alpha chain): #1 -1.12 inactive; #2 4.36 inactive; #3 0.745 inactive
CDA (cytidine deaminase): #1 3.61 inactive; #2 -0.482 inactive; #3 -0.833 inactive
ANKRD34C-AS1 (ANKRD34C antisense RNA 1): #1 -1.18 inactive; #2 1.53 inactive; #3 -0.592 inactive
SYK (spleen associated tyrosine kinase): #1 -0.405 inactive; #2 -0.0382 inactive; #3 -0.832 inactive
EMC8 (ER membrane protein complex subunit 8): #1 -1.32 inactive; #2 1.38 inactive; #3 1.52 inactive
KLF2 (KLF transcription factor 2): #1 1.13 inactive; #2 -1.2 inactive; #3 0.329 inactive
VPS16 (VPS16 core subunit of CORVET and HOPS complexes): #1 1.95 inactive; #2 2.14 inactive; #3 -0.431 inactive
AURKA (aurora kinase A): #1 2.17 inactive; #2 5.53 active; #3 6.86 active

8 consecutive reagents from above:
G2 robust z-score, by target gene and reagent
EMC8 (ER membrane protein complex subunit 8): #3 1.52 inactive
KLF2 (KLF transcription factor 2): #1 1.13 inactive; #2 -1.2 inactive; #3 0.329 inactive
VPS16 (VPS16 core subunit of CORVET and HOPS complexes): #1 1.95 inactive; #2 2.14 inactive; #3 -0.431 inactive
AURKA (aurora kinase A): #1 2.17 inactive

More results:
G2 robust z-score, by target gene and reagent
ETV4 (ETS variant transcription factor 4): #1 0.0752 inactive; #2 0.331 inactive; #3 0.449 inactive
ELOVL5 (ELOVL fatty acid elongase 5): #1 1.93 inactive; #2 0.363 inactive; #3 0.123 inactive
SULF2 (sulfatase 2): #1 -0.839 inactive; #2 -1.37 inactive; #3 -1.47 inactive
ZHX3 (zinc fingers and homeoboxes 3): #1 0.117 inactive; #2 0.719 inactive; #3 -0.606 inactive
RNF139 (ring finger protein 139): #1 0.775 inactive; #2 -0.854 inactive; #3 1.3 inactive
EIF3LP3: #1 0.708 inactive; #2 -0.259 inactive; #3 -0.682 inactive
